PubChem BioAssay AID652259 – Drosophila RNAi Screening Center | 2013
Purpose: 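Identify new Wingless signalling regulators in fly cells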 (primary screen). Cell system: Drosophila clone 8 imaginal disc epithelial cells. Reagents: long dsRNA against Drosophila genes. Challenge: pathway stimulated by co-transfected Wingless expression plasmid. Detection: 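Firefly luciferase from a tcf-site Wingless reporter, measured alongside co-transfected Renilla luciferase that tracks transfection; pathway stimulated by a Wingless plasmid; the firefly-to-Renilla ratio is not deposited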. Scale: firefly reporter light: higher = more Wg reporter light, before normalisation; Renilla control light: higher = more transfected or surviving cells. Rule for the call: 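Strong candidates differ from their plate mean by at least two out of four per-plate statistical tests; weak candidates meet just one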. Meaning of the calls: active = candidate regulator (raises or lowers reporter); inactive = not a candidate.
In all, the deposit lists about 22,000 reagents; this is a random part of those with a known target gene and a result. In the full data, 233 (1.1%) were called active. 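Light values are raw, unnormalised plate reads; the ratio scores behind the reporter calls were not deposited.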 A plus sign joins genes that one reagent is predicted to hit. No sequences are given here. The record does not give: the amount of reagent, the time to read-out, the dose of the treatment.

target | dsRNA | reporter change call, replicate 1 | firefly reporter light, replicate 1 | firefly reporter light, replicate 2 | Renilla control light, replicate 1 | Renilla control light, replicate 2 | call
CG40485 (GeneID 3355165) | DRSC20624 | – | 22049 | – | 12296 | – | inactive
Ugt37B1 (GeneID 53584) | DRSC03225 | – | 3290 | 6844 | 592 | 2502 | inactive
TkR99D (GeneID 43551) | DRSC16881 | – | 9224 | – | 2937 | – | inactive
CG11857 (GeneID 43042) | DRSC14411 | – | 13560 | – | 13308 | – | inactive
CG14020 (GeneID 33771) | DRSC02350 | – | 2112 | 4548 | 1042 | 826 | inactive
CG9304 (GeneID 37500) | DRSC04538 | – | 2560 | 6522 | 578 | 2373 | inactive
PGRP-LD + Pmi | DRSC10512 | – | 4352 | – | 1856 | – | inactive
PGRP-LD + Pmi | DRSC10513 | – | 2642 | 9655 | 2551 | 4744 | inactive
CG42245 + MEP-1 | DRSC07993 | – | 4051 | – | 1842 | – | inactive
CG42245 + MEP-1 | DRSC08274 | Wg reporter activity lowered | 26288 | – | 11873 | – | inactive
CG42245 + MEP-1 | DRSC21460 | – | 9.32e5 | 7.62e5 | 2.52e5 | 1.52e5 | inactive
CG10469 (GeneID 38696) | DRSC09729 | – | 1315 | 7004 | 853 | 2539 | inactive
CG30279 (retired record) (GeneID 246524) | DRSC22417 | – | 9.14e5 | 8.56e5 | 4.22e5 | 1.48e5 | inactive
Mur82C (GeneID 40574) | DRSC12011 | – | 2600 | – | 902 | – | inactive
Mur82C (GeneID 40574) | DRSC12212 | – | 25222 | 7.59e5 | 7016 | 2.82e5 | inactive
Alg14 (GeneID 32479) | DRSC19983 | – | 20572 | – | 7744 | – | inactive
CG43218 (GeneID 12798438) | DRSC11475 | – | 3081 | – | 1737 | – | inactive
Prdm13 (GeneID 38713) | DRSC09970 | – | 2198 | 11988 | 1536 | 4352 | inactive
Ubc6 (GeneID 40610) | DRSC12370 | – | 8554 | – | 1872 | – | inactive
PGAP3 (GeneID 35570) | DRSC04989 | – | 9834 | – | 3106 | – | inactive
Hr38 (GeneID 35332) | DRSC03345 | Wg reporter activity raised | 5984 | 13363 | 520 | 1666 | active
CycB3 (GeneID 42971) | DRSC16618 | – | 16893 | – | 12744 | – | inactive
Hao + Pex6 | DRSC06097 | – | 8412 | – | 2256 | – | inactive
Hao + Pex6 | DRSC06704 | – | 2125 | 6232 | 608 | 2581 | inactive
CG12115 (GeneID 31853) | DRSC17811 | – | 30501 | – | 17747 | – | inactive
Tre1 (GeneID 140439) | DRSC18726 | – | 18202 | – | 8112 | – | inactive
MED11 (GeneID 40042) | DRSC10739 | – | 6983 | – | 532 | – | inactive
CG31274 + MESK4 | DRSC13202 | – | 3904 | – | 1335 | – | inactive
CG31233 (GeneID 42557) | DRSC15888 | – | 35952 | – | 5504 | – | inactive
mthl6 (GeneID 38839) | DRSC10234 | – | 1912 | 9280 | 1133 | 3018 | inactive
Acyp2 (GeneID 41910) | DRSC15336 | – | 17308 | – | 3578 | – | inactive
Cyp6a8 (GeneID 36666) | DRSC07384 | – | 15388 | – | 4819 | – | inactive
dsd (GeneID 43315) | DRSC13829 | – | 6586 | – | 2257 | – | inactive
dsd (GeneID 43315) | DRSC15850 | – | 3478 | 8673 | 1397 | 2912 | inactive
colt (GeneID 33470) | DRSC00808 | – | 11734 | – | 3805 | – | inactive
CG33158 (GeneID 39834) | DRSC09708 | – | 4556 | – | 1511 | – | inactive
CG33158 (GeneID 39834) | DRSC09709 | – | 8743 | – | 4316 | – | inactive
CG33158 (GeneID 39834) | DRSC10438 | – | 9621 | – | 2915 | – | inactive
GM130 (GeneID 37524) | DRSC04617 | – | 10913 | – | 2912 | – | inactive
CG42336 (GeneID 36205) | DRSC05273 | – | 15124 | – | 12572 | – | inactive
CG42336 (GeneID 36205) | DRSC06332 | – | 4138 | – | 2067 | – | inactive
CG42336 (GeneID 36205) | DRSC06333 | – | 8386 | – | 3952 | – | inactive
Rheb (GeneID 117332) | DRSC12148 | – | 9104 | – | 2208 | – | inactive
CG4733 (GeneID 42368) | DRSC15634 | – | 15336 | – | 3580 | – | inactive
lncRNA:CR43613 (GeneID 12798296) | DRSC13943 | – | 3152 | – | 1317 | – | inactive
JhI-21 (GeneID 34624) | DRSC02161 | – | 12964 | – | 4342 | – | inactive
Set2 (GeneID 32301) | DRSC19765 | – | 1689 | 7714 | 372 | 2041 | inactive
Syt1 (GeneID 33473) | DRSC00156 | – | 21530 | – | 9664 | – | inactive
Syt1 (GeneID 33473) | DRSC00157 | – | 20266 | 6.00e5 | 10949 | 2.22e5 | inactive
Syt1 (GeneID 33473) | DRSC00158 | – | 14125 | – | 6791 | – | inactive
Syt1 (GeneID 33473) | DRSC00840 | – | 14213 | – | 5576 | – | inactive
Syt1 (GeneID 33473) | DRSC22077 | – | 8.28e5 | 8.34e5 | 4.07e5 | 4.37e5 | inactive
aln (GeneID 2768997) | DRSC08240 | – | 3445 | – | 1808 | – | inactive
HnRNP-K (GeneID 43862) | DRSC07585 | – | 19960 | – | 8183 | – | inactive
HnRNP-K (GeneID 43862) | DRSC22734 | – | 5.61e5 | 4.35e5 | 1.50e5 | 1.25e5 | inactive
AANATL2 (GeneID 33874) | DRSC03227 | – | 2147 | 7155 | 544 | 1932 | inactive
Lk (GeneID 47746) | DRSC10022 | – | 10891 | – | 4147 | – | inactive
CG2861 (GeneID 31414) | DRSC18229 | – | 15892 | – | 9098 | – | inactive
CG34328 (GeneID 5740378) | DRSC19256 | – | 4481 | – | 1480 | – | inactive
RASSF8 (GeneID 43096) | DRSC15707 | – | 2362 | 8811 | 886 | 2912 | inactive
mura (GeneID 41145) | DRSC16483 | – | 12150 | – | 2368 | – | inactive
mura (GeneID 41145) | DRSC16484 | Wg reporter activity raised | 12476 | – | 1008 | – | active
CG14543 (GeneID 43167) | DRSC14887 | – | 17190 | – | 16225 | – | inactive
CG14937 (GeneID 34591) | DRSC02419 | – | 2200 | 5782 | 1048 | 2788 | inactive
CG3124 (GeneID 37688) | DRSC04339 | – | 2278 | 3787 | 251 | 1111 | inactive
baf (GeneID 34095) | DRSC03051 | – | 7091 | 13063 | 1237 | 3200 | inactive
HGTX (GeneID 53446) | DRSC09319 | – | 2872 | – | 1530 | – | inactive
HGTX (GeneID 53446) | DRSC11181 | – | 5132 | – | 2850 | – | inactive
CG15528 (GeneID 43575) | DRSC15065 | – | 9538 | – | 4535 | – | inactive
Tomosyn (GeneID 32217) | DRSC19365 | – | 2909 | 7136 | 644 | 1475 | inactive
Tomosyn (GeneID 32217) | DRSC19692 | – | 23156 | – | 10945 | – | inactive
Tomosyn (GeneID 32217) | DRSC19782 | – | 1589 | 7056 | 803 | 2490 | inactive
Tomosyn (GeneID 32217) | DRSC19842 | – | 34411 | – | 16640 | – | inactive

Part of the list above, reformatted.
target,dsRNA,"reporter change call, replicate 1","firefly reporter light, replicate 1","firefly reporter light, replicate 2","Renilla control light, replicate 1","Renilla control light, replicate 2",call
Prdm13 (GeneID 38713),DRSC09970,,2198,11988,1536,4352,inactive
Ubc6 (GeneID 40610),DRSC12370,,8554,,1872,,inactive
PGAP3 (GeneID 35570),DRSC04989,,9834,,3106,,inactive
